In publication PMC11169420, “The kinase ZYG-1 phosphorylates the cartwheel protein SAS-5 to drive centriole assembly in C. elegans” (EMBO Reports, 2024):
These are yes or no findings as the source states them, for the method shown. A result given as binding can be weak or reduced; the word gives no strength. Where a sequence is shown, tags or fusion partners need not be part of it.

Biological target: GST-ZYG-1 PB3 domain fragment (C. elegans)
Assay: pull-down; GST-ZYG-1 fragment baits (4.32 mM as printed) on magnetic glutathione beads, blocked with Odyssey blocking buffer; full-length SAS-5 prey (0.2 mM as printed) 1 h at 4 °C; washed with 50 mM Tris pH 8.0, 300 mM NaCl, 5 mM DTT; immunoblot with anti-GST and anti-SAS-5; GST alone as negative control; both purified

- binding: binds
B1: SAS-5::His6, full-length, refolded in vitro (protein, UniProt Q20010 1-404)
chain: MGNNYDDLPCSIYFKKPTVQEFVDQPRVFEDSEVPAFQEVLQLPQERTKPPVPSTQPIVAAVEVAKKKSCLSAPKPRKEPPSHPALRQKTVAFGKTVNVSQTVEGTSRNSKKVLASTMSAQNTTTTEEQAAENWRDAMKTELQTIRTEIQEETARRQEELNAQNLVKMQELMSNFFQKITIPKQQAIEPVEKDKENFHESPRQSRQQKPASKIASAREVIKRDGVIPPEALTIIEQRLRSDPMFRQQIDNVLADAECDANRAAYSPPPPMSEVRYGSGVNPALMRETLTVERSIRYDNGLASIDSRQWTNERRDNRAPDSYRTYEPDQPCHSLYQKGQSISYYPSEAAGKTTARNNRTGYYVEDSSDHEEDVVVNKRGQNYHEQAVPETPAERERRIREKYARRK
